Results are given in words; binding and its absence hold for the method and conditions named. In cells and extracts the contact can be indirect. For some of these results: A result given as binding can be weak or reduced; the word gives no strength. Tags and fused reporters may be left off the sequences shown.

Among the targets are Y281F-SLAMF7 (mouse); Y261F-SLAMF7 (mouse); Y266F-SLAMF7 (mouse).
Assay in all cases: co-IP; HEK 293T cells cotransfected with tagged murine constructs; IP from lysate with anti-Flag or anti-HA antibodies, immunoblot
Background: A western blot detects proteins with antibodies after separation by electrophoresis.

Assay [1] concerns the target T1, Flag-tagged SLAMF7 (signaling lymphocyte activation molecular family 7), full-length (mouse) (UniProt Q8BHK6).
T1 sequence: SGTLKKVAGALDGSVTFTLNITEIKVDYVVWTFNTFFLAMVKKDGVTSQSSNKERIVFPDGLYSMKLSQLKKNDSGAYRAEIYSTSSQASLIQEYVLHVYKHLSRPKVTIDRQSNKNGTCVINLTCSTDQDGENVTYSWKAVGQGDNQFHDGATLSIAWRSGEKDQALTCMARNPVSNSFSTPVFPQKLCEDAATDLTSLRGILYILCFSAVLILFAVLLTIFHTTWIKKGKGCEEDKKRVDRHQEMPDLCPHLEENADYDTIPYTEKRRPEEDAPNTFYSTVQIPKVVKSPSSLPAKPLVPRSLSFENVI

Assay [2] has as its target SLAMF7-Δtrans (SLAMF7 lacking the transmembrane domain) (mouse).
In assay [3] the target is SLAMF7-Δintra (SLAMF7 lacking the intracellular domain) (mouse).
Assay [4] deals with SLAMF7-Δextra (SLAMF7 lacking the extracellular domain) (mouse).

For “SHIP1-ΔP-rich (SHIP1 lacking the proline-rich C-terminal domain) (mouse) (domain or fragment)”, the binding entry in assay [1] was “binds”.

“SHIP1-ΔSH2 (SHIP1 lacking the SH2 domain) (mouse) (domain or fragment)”: in assay [1], the binding result is listed as “binds”.

B1: HA-tagged SHIP1 (Src homology 2-containing inositol-5'-phosphatase 1), full-length (enzyme, UniProt Q9ES52 1-1191)
chain: MPAMVPGWNHGNITRSKAEELLSRAGKDGSFLVRASESIPRAYALCVLFRNCVYTYRILPNEDDKFTVQASEGVPMRFFTKLDQLIDFYKKENMGLVTHLQYPVPLEEEDAIDEAEEDTVESVMSPPELPPRNIPMSAGPSEAKDLPLATENPRAPEVTRLSLSETLFQRLQSMDTSGLPEEHLKAIQDYLSTQLLLDSDFLKTGSSNLPHLKKLMSLLCKELHGEVIRTLPSLESLQRLFDQQLSPGLRPRPQVPGEASPITMVAKLSQLTSLLSSIEDKVKSLLHEGSESTNRRSLIPPVTFEVKSESLGIPQKMHLKVDVESGKLIVKKSKDGSEDKFYSHKKILQLIKSQKFLNKLVILVETEKEKILRKEYVFADSKKREGFCQLLQQMKNKHSEQPEPDMITIFIGTWNMGNAPPPKKITSWFLSKGQGKTRDDSADYIPHDIYVIGTQEDPLGEKEWLELLRHSLQEVTSMTFKTVAIHTLWNIRIVVLAKPEHENRISHICTDNVKTGIANTLGNKGAVGVSFMFNGTSLGFVNSHLTSGSEKKLRRNQNYMNILRFLALGDKKLSPFNITHRFTHLFWLGDLNYRVELPTWEAEAIIQKIKQQQYSDLLAHDQLLLERKDQKVFLHFEEEEITFAPTYRFERLTRDKYAYTKQKATGMKYNLPSWCDRVLWKSYPLVHVVCQSYGSTSDIMTSDHSPVFATFEAGVTSQFVSKNGPGTVDSQGQIEFLACYATLKTKSQTKFYLEFHSSCLESFVKSQEGENEEGSEGELVVRFGETLPKLKPIISDPEYLLDQHILISIKSSDSDESYGEGCIALRLETTEAQHPIYTPLTHHGEMTGHFRGEIKLQTSQGKMREKLYDFVKTERDESSGMKCLKNLTSHDPMRQWEPSGRVPACGVSSLNEMINPNYIGMGPFGQPLHGKSTLSPDQQLTAWSYDQLPKDSSLGPGRGEGPPTPPSQPPLSPKKFSSSTANRGPCPRVQEARPGDLGKVEALLQEDLLLTKPEMFENPLYGSVSSFPKLVPRKEQESPKMLRKEPPPCPDPGISSPSIVLPKAQEVESVKGTSKQAPVPVLGPTPRIRSFTCSSSAEGRMTSGDKSQGKPKASASSQAPVPVKRPVKPSRSEMSQQTTPIPAPRPPLPVKSPAVLQLQHSKGRDYRDNTELPHHGKHRQEEGLLGRTAMQ
In the case of B1, the binding result with Y281F-SLAMF7 (mouse) is listed as “no binding”; with Y261F-SLAMF7 (mouse), “binds”; in assay [2], “no binding”; in assay [3], “no binding”; in assay [4], “no binding”.

B2: HA-tagged TRAF6 (TNF receptor-associated factor 6) (protein, UniProt P70196 1-530)
chain: MSLLNCENSCGSSQSSSDCCAAMAASCSAAVKDDSVSGSASTGNLSSSFMEEIQGYDVEFDPPLESKYECPICLMALREAVQTPCGHRFCKACIIKSIRDAGHKCPVDNEILLENQLFPDNFAKREILSLTVKCPNKGCLQKMELRHLEDHQVHCEFALVNCPQCQRPFQKCQVNTHIIEDCPRRQVSCVNCAVSMAYEEKEIHDQSCPLANIICEYCGTILIREQMPNHYDLDCPTAPIPCTFSVFGCHEKMQRNHLARHLQENTQLHMRLLAQAVHNVNLALRPCDAASPSRGCRPEDPNYEETIKQLESRLVRQDHQIRELTAKMETQSMYVGELKRTIRTLEDKVAEMEAQQCNGIYIWKIGNFGMHLKSQEEERPVVIHSPGFYTGRPGYKLCMRLHLQLPTAQRCANYISLFVHTMQGEYDSHLPWPFQGTIRLTILDQSEALIRQNHEEVMDAKPELLAFQRPTIPRNPKGFGYVTFMHLEALRQGTFIKDDTLLVRCEVSTRFDMGGLRKEGFQPRSTDAGV
As for B2, the binding result is reported as “binds” with Y266F-SLAMF7 (mouse); “binds” in the assay with Y281F-SLAMF7 (mouse); “binds” with Y261F-SLAMF7 (mouse); “binds” in assay [2]; “no binding” in assay [3]; “binds” in assay [4].

The values above are taken from publication PMC10014109.
